The other results are listed elsewhere or left out. These are further read-outs of the screen, such as a control signal, another cell line or another target. No call is given for them. The list favours compounds with an active or inconclusive main result. The note in brackets gives the kind of curve behind each potency; many fits are weak.
Test: qHTS Assay for Identifying the Cell-Membrane Permeable IMPase Inhibitors
Settings: CHO-M1 cells, IP1 accumulation, HTRF TR-FRET ratio; measured here: donor channel 620 nm AC50

Compound	AC50
O=C(NCCC1=CCCCC1)c1cnc2n(c1=O)CCS2	0.112 µM [falling, full curve, poor fit]
COc1cccc(C(=O)N2CCN(C(=O)c3cccs3)CC2)c1OC	0.794 µM [falling, partial curve]
O=C(CN1CCOCC1)Nc1ccc(-c2nc3ccccc3[nH]2)cc1	3.98 µM [rising, single point]
O=C(Nc1nnc(-c2ccccc2)o1)C1CCCCC1	2.82 µM [falling, single point]
COc1ccc(NC(=O)CN(C)S(=O)(=O)c2ccccc2)cc1OC	0.126 µM [rising, partial curve]
CCCOc1ccc(NCC(=O)Nc2ccc(C)cc2C)cc1	0.501 µM [falling, full curve]
Cc1c2cc(O)c(=O)cc-2oc2cc(O)c(O)cc12	12.6 µM [falling, partial curve]
CCOC(=O)c1nnn(C(CC)C(=O)Nc2ccc(F)cc2)c1C(=O)OCC (configuration not stated)	1.12 µM [falling, full curve, poor fit]
O=S(=O)(c1cccs1)N1CCc2ccccc21	0.00794 µM [falling, full curve, poor fit]
O=C(NCc1cccs1)C1CCN(S(=O)(=O)c2cccs2)CC1	0.794 µM [falling, partial curve, poor fit]
CC1(C)CCc2nc(SCc3ccccc3)c(C#N)cc2C1	31.6 µM [falling, single point]
CCN(CC)CCNC(=O)c1ccccc1C(=O)c1ncc[nH]1	5.01 µM [falling, partial curve]
CC12CN3CCN(CC(C3)C1(O)CN1CCCCC1)C2 (configuration not stated)	31.6 µM [falling, single point]
CC(=O)N(c1ccc(Cl)cc1)c1c[nH]c2ccccc12	0.02 µM [rising, full curve, poor fit]
O=C(COC(=O)c1cc(-c2ccccc2Cl)nc2ccccc12)Nc1ncc(C(F)(F)F)cc1Cl	3.16 µM [rising, single point]
CCOc1ccc(OCC)c(N=c2oc3c(C)ncc(CO)c3cc2C(N)=O)c1	3.16 µM [rising, single point]
Cc1ccccc1C(=O)Nc1c2c(nc3ccccc13)CCCC2	22.4 µM [rising, single point]
CN(C)CCNc1c2c(c(C#N)c3nc4ccccc4n13)CCCC2	3.98 µM [falling, full curve, poor fit]
N#Cc1cc(Oc2cccnc2)c(Oc2cccnc2)cc1C#N	0.126 µM [falling, full curve, poor fit]
Cc1cc(C)n(-c2nnc(SCC(=O)NC3CCCC3)c3ccccc23)n1	31.6 µM [falling, single point]
CC(C)CC(C(=O)NC(=O)NCc1ccccc1)N1C(=O)c2ccccc2C1=O (configuration not stated)	0.02 µM [rising, full curve, poor fit]
CCCN1CCC2(CC1)C(C#N)=C(N)Oc1c2sc2nc(C)cc(C)c12	0.2 µM [falling, full curve, poor fit]
CCN(CC)S(=O)(=O)c1ccc2c(c1)nc(CCC(=O)Nc1ccccc1Cc1ccccc1)n2CC	0.794 µM [falling, full curve]

Pulled by structure from the list above:
Compound	AC50
CCCOc1ccc(NCC(=O)Nc2ccc(C)cc2C)cc1	0.501 µM [falling, full curve]
O=C(CN1CCOCC1)Nc1ccc(-c2nc3ccccc3[nH]2)cc1	3.98 µM [rising, single point]
O=C(NCc1cccs1)C1CCN(S(=O)(=O)c2cccs2)CC1	0.794 µM [falling, partial curve, poor fit]
COc1ccc(NC(=O)CN(C)S(=O)(=O)c2ccccc2)cc1OC	0.126 µM [rising, partial curve]

The results go on.

Compound	AC50
Nc1nnnn1/N=C/c1ccco1	3.98 µM [falling, single point]
Cc1sc2nc(C3CC3)nc(SCC(=O)N3c4ccccc4CC3C)c2c1C (configuration not stated)	0.794 µM [rising, full curve, poor fit]
COc1cc(/C=N/Nc2nn3cnnc3c3ccccc23)ccc1O	12.6 µM [falling, single point]
COCCn1nnnc1C(c1cccs1)N1CCN(c2cccc(C(F)(F)F)c2)CC1 (configuration not stated)	10 µM [rising, partial curve]
COc1ccc(C(=O)Nc2ccc(CN3CCOCC3)cc2)cc1	20 µM [falling, single point]
CCN(Cc1ccccc1)Cc1c(O)ccc2c(=O)c(-c3ccc(Cl)cc3)c(C(F)(F)F)oc12	28.2 µM [rising, single point]
CCN(CC)C(=O)CCNS(=O)(=O)c1ccc(C)cc1	31.6 µM [rising, single point]
CCOC(=O)c1[nH]cnc1C(=O)Nc1ccccn1	3.98 µM [rising, partial curve, poor fit]
O=C(C1=NN[C@@H]2C(=O)N(c3ccccc3C(F)(F)F)C(=O)[C@H]12)C(c1ccccc1)c1ccccc1	35.5 µM [rising, single point]
O=C(Nc1ccccc1-c1nnc(SCc2ccccc2Cl)o1)c1ccccc1	25.1 µM [rising, single point]
O=C(NCc1ccccc1Cl)c1ccc(Nc2nc3ccccc3n3nnnc23)cc1	5.01 µM [falling, partial curve, poor fit]
CCOc1ccc(NC(=O)C(=O)NCC2CCCN2CC)cc1 (configuration not stated)	6.31 µM [rising, single point]
O=C(CSc1ncnc2c1oc1ccccc12)NCc1ccco1	10 µM [rising, partial curve]
COC(=O)c1cc(Br)c(=O)n(Cc2ccc(OC)c(OC)c2)c1	6.31 µM [falling, single point]
Cc1ccc(C(=O)NNC(=O)c2ccc(SCC3CCCO3)c([N+](=O)[O-])c2)cc1 (configuration not stated)	0.02 µM [rising, full curve, poor fit]
Cc1cccc2cc(C(c3nnnn3C3CCCC3)N3CCOCC3)c(=O)[nH]c12 (configuration not stated)	0.02 µM [rising, full curve, poor fit]
Cc1sc2ncnc(Sc3ccccc3C(=O)Nc3ccccc3Cl)c2c1C	6.31 µM [rising, single point]
Cc1cccc(Nc2nn3c(=O)c4ccccc4nc3s2)c1	31.6 µM [rising, single point]
O=C(c1ccc(CNS(=O)(=O)c2cccc(C(F)(F)F)c2)cc1)N1CCOCC1	3.16 µM [falling, partial curve, poor fit]
O=C(CSc1nc2[nH]ncc2c(=O)[nH]1)N1CCCCC1	1.12 µM [rising, full curve, poor fit]
Cc1nn(C/C(C#N)=N\O)c(C)[n+]1N	0.631 µM [falling, full curve, poor fit]
CSC(=Nc1ccccc1)C1=C(O)COC1=O	0.0126 µM [rising, full curve, poor fit]
S=c1nc[nH]c2c1[nH]c1ccccc12	12.6 µM [rising, partial curve]

A portion taken from the entries so far, for reference:
Compound	AC50
O=C(CN1CCOCC1)Nc1ccc(-c2nc3ccccc3[nH]2)cc1	3.98 µM [rising, single point]
O=C(Nc1nnc(-c2ccccc2)o1)C1CCCCC1	2.82 µM [falling, single point]

Additional structures follow.

Compound	AC50
CCOC(=O)c1cnc(SCC(=O)Nc2cc(C(F)(F)F)ccc2N2CCOCC2)nc1N	25.1 µM [rising, single point]
CCN(CC)c1ccc(/C=N/Nc2nc(C)cc(=O)[nH]2)cc1	12.6 µM [falling, partial curve, poor fit]
CCOC(=O)c1sc(NC(=O)CSc2nc3c(cc2C#N)CCCCC3)c(C#N)c1C	15.8 µM [rising, single point]
O=C(Nc1ccc2nsnc2c1)c1cccs1	25.1 µM [falling, single point]
c1ccc(-c2cnn3c(-c4ccccc4)c(-c4ccccc4)nc3n2)cc1	35.5 µM [rising, single point]
N#Cc1c(C(F)(F)F)cc(-c2cccs2)nc1SCC(=O)Nc1ccc(F)cc1	31.6 µM [rising, partial curve]
Cc1ccc2c(c1C)NC(=O)C2(O)CC(=O)c1ccc2c(c1)OCO2 (configuration not stated)	12.6 µM [falling, partial curve, poor fit]
COC(=O)c1ccccc1NC(=O)CN1CCN(C(=O)c2ccco2)CC1	0.1 µM [falling, full curve, poor fit]
O=C(CCNS(=O)(=O)c1ccc(Br)s1)Nc1ccc(Cl)cc1	5.01 µM [falling, single point]
Cc1nc(-c2ccc(S(=O)(=O)N3CCCCCC3)cc2)cs1	0.0158 µM [rising, full curve, poor fit]
CC(C)C(=O)Nc1ccc2c3c(cccc13)CC2	1.26 µM [falling, full curve, poor fit]
O=c1cc(N2CCc3ccccc32)[nH]c(=O)n1-c1ccccc1	0.891 µM [falling, partial curve]
Cc1ccc(Oc2cc(C#N)c(C#N)cc2-n2nnc3ccccc32)cc1C	0.398 µM [falling, full curve, poor fit]
Cc1cc2c(C)ccc(C)c2nc1SCC(=O)c1cccs1	0.0126 µM [falling, full curve, poor fit]
COc1ccc(Cc2nnc(NC(=O)CSc3ccccc3)s2)cc1	0.00398 µM [falling, full curve, poor fit]
CSc1ccccc1C(=O)Nc1ccc2c(c1)OCCO2	3.98 µM [rising, single point]
C=CCC(NCCCO)c1cccc(OC)c1OC (configuration not stated)	0.02 µM [falling, full curve, poor fit]
CCNc1nc(OCC)nc(N2CCC(Cc3ccccc3)CC2)n1	35.5 µM [rising, partial curve, poor fit]
COc1ccc(-c2cc(C(F)(F)F)n3nc(-c4ccc(Cl)cc4)cc3n2)cc1OC	0.251 µM [falling, partial curve, poor fit]
O=c1oc2cc(O)ccc2c2ccccc12	12.6 µM [rising, partial curve]
O=C(OCc1cc2ccccc2[nH]c1=O)c1cccnc1	0.0126 µM [rising, full curve, poor fit]

Reference: PubChem BioAssay AID901 (National Center for Advancing Translational Sciences (NCATS), 2007)
